In paper PMC10405847:
No constants are given. Whether binding was seen depends on the method and setting. Binding seen in cells or lysates may run through a third protein.

The chains behind the UniProt entries cited, without tags or fusion partners. Where a name states a change or a piece, a line headed by the entry shows the natural chain unless it says otherwise.
UniProt Q60843: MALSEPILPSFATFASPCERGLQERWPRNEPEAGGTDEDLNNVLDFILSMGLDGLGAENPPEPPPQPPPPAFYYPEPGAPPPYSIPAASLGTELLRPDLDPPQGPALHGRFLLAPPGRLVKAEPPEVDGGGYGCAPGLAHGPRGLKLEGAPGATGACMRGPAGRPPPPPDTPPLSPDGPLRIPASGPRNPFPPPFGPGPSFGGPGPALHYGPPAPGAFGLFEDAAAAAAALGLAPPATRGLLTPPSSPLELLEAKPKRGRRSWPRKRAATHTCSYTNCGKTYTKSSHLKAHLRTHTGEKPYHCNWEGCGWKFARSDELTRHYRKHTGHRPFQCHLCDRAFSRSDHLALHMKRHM
UniProt Q9EPK5: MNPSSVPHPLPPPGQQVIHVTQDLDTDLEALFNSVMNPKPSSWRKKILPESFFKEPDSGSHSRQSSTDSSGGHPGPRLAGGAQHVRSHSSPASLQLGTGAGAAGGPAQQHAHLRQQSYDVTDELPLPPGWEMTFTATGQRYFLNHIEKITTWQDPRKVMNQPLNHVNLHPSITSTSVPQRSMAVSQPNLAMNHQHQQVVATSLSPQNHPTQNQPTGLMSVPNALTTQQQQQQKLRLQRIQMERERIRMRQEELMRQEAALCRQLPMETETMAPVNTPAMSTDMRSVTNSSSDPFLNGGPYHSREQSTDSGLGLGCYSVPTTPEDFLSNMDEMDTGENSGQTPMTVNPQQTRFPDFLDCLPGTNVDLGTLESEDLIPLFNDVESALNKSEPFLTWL

Target: Myc-tagged KLF2 (UniProt Q60843)
Assay: co-IP; HEK293T transfected with wild-type or deletion mutants of TAZ and Myc-tagged KLF2; immunoprecipitation with Myc-tag antibodies, immunoblot

binding: no binding
Substance: TAZ∆WW (from UniProt Q9EPK5)
